Common to all, as to assay type: in vivo
Data set [1] has as its system mice subjected to TAC or sham surgery. Description: TAC or sham surgery in mice, Protocol 2: febuxostat or allopurinol for three weeks beginning seven days after TAC. The note with it: for Body weight / Heart rate: drinking water (FBS 0.05 mg/ml, allopurinol 0.15 mg/ml) three weeks from day 7; for Average body weight increase: during the three-week treatment period. The text has this: • Mice. Male C57/BL6 mice at 8-9 weeks of age were purchased from Jackson Laboratories (Bar Harbor, Me.) for use in this study. Mice were housed in an air-conditioned room with a 12-hour:12-hour light-dark cycle, received standard mouse chow, and drank tap water. This study was approved by the Institutional Animal Care and Use Committee of the University of Minnesota. • Experimental Protocol 1. This protocol was designed to determine whether febuxostat (2-[3-cyano-4-(2-methylpropoxy)phenyl]-4-methylthiazole-5-carboxylic acid) treatment, beginning immediately after the onset of acute pressure overload, could protect against transverse aortic constriction (TAC)-induced left ventricular (LV) hypertrophy, dysfunction and mortality. Three treatment groups were included (See Table 1, below): sham-operated mice (n=20), TAC mice treated with vehicle (0.5% methylcellulose) (n=30), and TAC mice treated with febuxostat (suspension in 0.5% methylcellulose) (n=30). To generate LV hypertrophy in a short time period with a significant incidence of cardiac mortality, TAC was created by ligating the transverse aorta against a 27 G needle to create severe LV pressure overload. Since mice tend to take in less water and food during the first 1-3 days after the TAC procedure, febuxostat (5 mg/kg/day in 250 μl vehicle) or vehicle (250 μl) was administered daily by oral gavage for a total of 8 days, with the first dose administered on the day of the surgery after the animal awoke from anesthesia (˜60 min after the TAC procedure). On the eighth day, LV function was assessed by echocardiography approximately 1 hour after the last febuxostat or vehicle dose. Approximately 3 hours after echocardiographic evaluation (4 hours after the last febuxostat or vehicle dose), the mice were weighed and blood samples collected. The animals were euthanized and the heart and lungs excised; the right and left atria were trimmed away, and the ventricles and lungs were weighed. Tissue from the left ventricle was used for histological evaluation and Western blots. • Experimental Protocol 2. This protocol was designed to determine whether administration of febuxostat (FBS) or allopurinol (AL) beginning after the onset of cardiac hypertrophy, LV dysfunction and heart failure could exert a protective effect. For this protocol, mice subjected to TAC (using a 26 gauge (G) needle to generate moderate TAC) or sham surgery were divided into six experimental groups as described in Table 1, below. Beginning seven days after TAC, animals were treated with vehicle (0.01 mg/ml NaCl, equivalent salt content as in the FBS drinking water), FBS (0.05 mg/ml) or AL (0.15 mg/ml) in drinking water for three weeks. Following three weeks of treatment, ventricular function was assessed by echocardiography. Blood samples and cardiac tissue were collected during 2-3 hours after the echocardiographic evaluation as described previously in Protocol 1.
• Minimally Invasive TAC Procedure. TAC was performed using the minimally invasive suprasternal approach described by Hu et al. (See, Hu et al., Am. J. Physiol. Heart Circ. Physiol., 3:H1261-9 (2003)). Mice were anesthetized with a mixture of 80 mg/kg ketamine and 30 mg/kg xylazine intraperitoneally. A horizontal incision was made at the level of the suprasternal notch to allow direct visualization of the transverse aorta without entering the pleural space. With the aid of a dissecting microscope, aortic constriction was performed by ligating the aorta between the right innominate artery and the left carotid artery over a 27 G) needle using 5-0 silk suture. The needle was immediately removed after ligation, leaving the aortic constriction in place. The incision was closed and the animals were allowed to recover. Analgesia was provided before the mice awoke from anesthesia. Sham surgery utilized the same procedure but without aortic ligation. • Echocardiography.

Data set [2] relates to post-myocardial infarction rabbits. Description: Chronic xanthine oxidase inhibition following myocardial infarction (permanent coronary artery ligation) in rabbits. The conditions noted are these: Day 49. The source says:
• Animals Male New Zealand white rabbits (1-2 kg; Clerco Research Farms, Cincinnati, Ohio, USA) were housed in separate cages in an environmentally controlled facility. The animals were subjected to circadian light-dark cycles, maintained on standard rabbit chow (2030C, Harlan Teklad, Madison, Wis., USA) and provided water ad libitum.
The procedures used in this study were reviewed and approved by the Institutional Animal Care and Use Committee (IACUC) of QTest Labs for compliance with regulations and current accepted practices. All applicable sections of the Final Rules of the Animal Welfare Act regulations (Section 9 CFR) and the Public Health Service Policy on Humane Care and Use of Laboratory Animals (OPRR, NIH, 1986) were followed. At the end of the study, all animals were humanely euthanized in accordance with accepted guidelines of the American Veterinary Medical Association (See, American Veterinary Medicine Association (AVMA), 2000 Report of the AVMA Panel on Euthanasia, The Journal of the American Veterinary Medical Association, 218(5):669-696 (2001)). • Drugs Febuxostat and allopurinol (Sigma-Aldrich, St. Louis, Mo., USA) were each formulated as a suspension in 0.5% methylcellulose (Sigma-Aldrich, St. Louis, Mo.) as the vehicle. […] Allopurinol was given orally at 60 mg/kg. […] The rabbits were anesthetized with an intramuscular injection of ketamine (35 mg/kg)/xylazine (5 mg/kg) and pre-surgery enrofloxacin (12 mg/kg). Isoflurane (1-2%) was given during the surgery as required to maintain a deep level of anesthesia and the animals were allowed to breathe 100% oxygen. A limb lead electrocardiogram (ECG) was obtained to monitor sinus rhythm, heart rate, and J-point deviation. The rabbit was placed in dorsal recumbency, and the sternum was exposed by blunt dissection and then incised with scissors. […] Myocardial ischemia was confirmed by regional cyanosis of the myocardial surface and ST-segment elevation on the ECG. The sternum was closed, leaving the pericardial sac as it was. The muscle layers, subcutaneous layer and skin were then closed. […]

Data set [3] has as its system TAC mice. The data set can be described thus: Transverse aortic constriction (TAC) in mice, Protocol 1: febuxostat for 8 days beginning ~60 min after TAC. The note with it: 5 mg/kg/day oral gavage for 8 days from ~60 min after TAC. The source says:
• Mice. Male C57/BL6 mice at 8-9 weeks of age were purchased from Jackson Laboratories (Bar Harbor, Me.) for use in this study. Mice were housed in an air-conditioned room with a 12-hour:12-hour light-dark cycle, received standard mouse chow, and drank tap water. This study was approved by the Institutional Animal Care and Use Committee of the University of Minnesota. • Experimental Protocol 1. This protocol was designed to determine whether febuxostat (2-[3-cyano-4-(2-methylpropoxy)phenyl]-4-methylthiazole-5-carboxylic acid) treatment, beginning immediately after the onset of acute pressure overload, could protect against transverse aortic constriction (TAC)-induced left ventricular (LV) hypertrophy, dysfunction and mortality. Three treatment groups were included (See Table 1, below): sham-operated mice (n=20), TAC mice treated with vehicle (0.5% methylcellulose) (n=30), and TAC mice treated with febuxostat (suspension in 0.5% methylcellulose) (n=30). To generate LV hypertrophy in a short time period with a significant incidence of cardiac mortality, TAC was created by ligating the transverse aorta against a 27 G needle to create severe LV pressure overload. […] On the eighth day, LV function was assessed by echocardiography approximately 1 hour after the last febuxostat or vehicle dose. […] Following three weeks of treatment, ventricular function was assessed by echocardiography. […]

The mark [4] stands for this setting: delayed treatment: vehicle 21 days then oral FBS 10 mg/kg/day or AL 60 mg/kg/day for 28 days.

In the case of `Oc1ncnc2[nH]ncc12` [allopurinol], the Body weight was 24.8 ± 0.6 g in data set [1] (TAC mice); 24.4 ± 0.6 g in data set [1] (sham mice); “no significant effects” in data set [1] (sham mice, listed as AL); 2.70 ± 0.04 kg in data set [2] (setting [4]). The Heart rate stood at 463 ± 10 beats/min in data set [1] (TAC mice) and 490 ± 16 beats/min in data set [1] (sham mice). Further, the “Average body weight increase” value in data set [1] (TAC mice) worked out at 3.38 ± 0.37 g.

In the case of `Cc1nc(-c2ccc(OCC(C)C)c(C#N)c2)sc1C(=O)O` [febuxostat, 2-[3-cyano-4-(2-methylpropoxy)phenyl]-4-methylthiazole-5-carboxylic acid], the Body weight in data set [1] (TAC mice) stood at 25.8 ± 0.4 g; in data set [2] (setting [4]), 2.37 ± 0.13 kg; in data set [2] (early treatment: FBS 10 mg/kg/day oral for 49 days from 1 day after coronary occlusion) it was 2.55 ± 0.06 kg; in data set [3], 23.4 ± 0.9 g. The figures for the Heart rate in data set [1] (TAC mice), in data set [1] (sham mice) and in data set [3] were 454 ± 11 beats/min, 504 ± 19 beats/min and 415 ± 18 beats/min, respectively. In addition, in data set [1] (TAC mice), the “Average body weight increase” value worked out at 2.93 ± 0.42 g.

(Values after patent US20100311756A1, “METHODS FOR DELAYING THE PROGRESSION OF AT LEAST ONE OF CARDIAC HYPERTROPHY, CARDIAC REMODELING OR LEFT VENTRICULAR FUNCTION OR THE ONSET OF HEART FAILURE IN SUBJECTS IN NEED OF TREATMENT THEREOF” (TAKEDA PHARMACEUTICALS NORTH AMERICA, INC., priority 2009, published 2010).)
